PubChem BioAssay AID1259405 – NCATS | 2018

Aim: 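Knock-downs that lift recombinant protein yield in hamster ovary cells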 (primary screen)
Cell system: Chinese hamster CHO-K1 ovary cells with stable secreted eGFP expression
Knock-down reagent: single siRNA against mouse genes, 0.8 pmol siRNA per well (2 µl of 400 nM stock)
Timing: 3 days
Measurement: 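Per-well intracellular GFP measured by laser scanning cytometry, plus viability from ATP luminescence, each relative to plate median of non-targeting control wells, in %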
Scale: GFP, % of control: higher = more GFP per well, higher productivity; viability (ATP), % of control: higher = more viable cells (more ATP)
Hit rule: 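a knock-down is called active if GFP reaches 120% or more of non-targeting control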
Here is a random part of about 50,000 reagents. In the full data, about 4,000 (8%) are marked active. 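Mouse siRNA library applied to hamster cells; one well for each siRNA.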 Unmarked entries are inactive. The numbers tell different reagents against one gene apart. Reagent sequences are not shown.

| gene knocked down | reagent no. | GFP, % of control | viability (ATP), % of control |
| --- | --- | --- | --- |
| Cpne1 | 1 | 64.5 | 101 |
| Cpne1 | 2 | 40 | 88.8 |
| Cpne1 | 3 | 95.1 | 116 |
| Dpysl5 | 1 | 77.9 | 104 |
| Dpysl5 | 2 | 48.4 | 67.4 |
| Dpysl5 | 3 | 17.1 | 36.4 |
| Rnf19a | 1 | 117 | 68.7 |
| Rnf19a | 2 | 76 | 85.3 |
| Rnf19a | 3 | 75.3 | 77.6 |
| Slc6a8 | 1 | 94 | 57.1 |
| Slc6a8 | 2 | 36.3 | 28.7 |
| Slc6a8 | 3 | 87.8 | 74.2 |
| Krtap6-2 | 1 | 38.3 | 63 |
| Krtap6-2 | 2 | 84.5 | 86.7 |
| Krtap6-2 | 3 | 70.8 | 50.8 |
| Prdx6 | 1 | 77.3 | 86.2 |
| Prdx6 | 2 | 73.9 | 64.5 |
| Prdx6 | 3 | 86.8 | 70 |
| Defb19 | 1 | 66.5 | 79.1 |
| Defb19 | 2 | 215 (active) | 86.2 |
| Defb19 | 3 | 29.9 | 92.1 |
| Fxyd7 | 1 | 62.2 | 83.6 |
| Fxyd7 | 2 | 60.9 | 42.2 |
| Fxyd7 | 3 | 69.2 | 61.8 |
| Tubg2 | 1 | 50 | 59.8 |
| Tubg2 | 2 | 119 | 141 |

Laid out differently: 10 of the entries above
gene knocked down | reagent no. | GFP, % of control | viability (ATP), % of control
Slc6a8 | 3 | 87.8 | 74.2
Krtap6-2 | 1 | 38.3 | 63
Krtap6-2 | 2 | 84.5 | 86.7
Krtap6-2 | 3 | 70.8 | 50.8
Prdx6 | 1 | 77.3 | 86.2
Prdx6 | 2 | 73.9 | 64.5
Prdx6 | 3 | 86.8 | 70
Defb19 | 1 | 66.5 | 79.1
Defb19 | 2 | 215 (active) | 86.2
Defb19 | 3 | 29.9 | 92.1

Next reagents:
| gene knocked down | reagent no. | GFP, % of control | viability (ATP), % of control |
| --- | --- | --- | --- |
| Btrc | 1 | 45.2 | 59.5 |
| Btrc | 2 | 93.6 | 57.5 |
| Btrc | 3 | 105 | 154 |
| Zkscan8 | 1 | 92.5 | 98.8 |
| Zkscan8 | 2 | 53.8 | 64.7 |
| Zkscan8 | 3 | 74.5 | 105 |
| Nr2f6 | 1 | 76.5 | 86.2 |
| Nr2f6 | 2 | 70.5 | 67.3 |
| Cpox | 1 | 114 | 126 |
| Cpox | 2 | 65.5 | 68.8 |
| Cpox | 3 | 66.3 | 69.1 |
| Lhx6 | 1 | 72 | 75 |
| Lhx6 | 2 | 93.8 | 108 |
| Lhx6 | 3 | 66.1 | 66.4 |
| Rtn4ip1 | 1 | 69.5 | 81.1 |
| Rtn4ip1 | 2 | 101 | 80.5 |
| Rtn4ip1 | 3 | 68.1 | 66 |
| Casp12 | 1 | 71.5 | 87.6 |
| Casp12 | 2 | 76.5 | 93.4 |
| Casp12 | 3 | 51.1 | 58.1 |
| Or3a1c | 1 | 118 | 75.7 |
| Or3a1c | 2 | 81.6 | 75.8 |
| Or3a1c | 3 | 135 (active) | 72.5 |
| Mucl1 | 1 | 83.7 | 59.8 |
| Mucl1 | 2 | 91.1 | 98.6 |
| Mucl1 | 3 | 92.4 | 128 |
| Armh3 | 1 | 64.9 | 37.5 |
| Armh3 | 2 | 55.8 | 70.5 |
| Armh3 | 3 | 68.1 | 46.5 |
| Gdf9 | 1 | 53.9 | 72.6 |
| Gdf9 | 2 | 25.5 | 26.1 |
| Gdf9 | 3 | 88.9 | 74.2 |
